Test results reported in PubChem BioAssay AID588765 (NMMLSC, 2011).
Screen size: about 1,100 compounds; fewer than 10 were called active.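 Rule for the calls: active = percent response below a set limit in fluorescence channel 1 and below 50% in channel 8; inactive = the rest.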 The list shows a part of the results, in another mix than the full data.

Experiment: compound fluorescence in dual-transfected Am2.2 cells, confirmation, artefact control for beta2AR agonist internalization project, cell-based, FAP fluorogen, flow cytometry, cherry pick 1 (AID 588765);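 note: low percent response here flags compound autofluorescence meaning a false positive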
Conditions: fluorescence counterscreen, at 10 µM, hits give low values

| SMILES | percent response FL1 |
| --- | --- |
| CCC(=O)c1ccc(OCC(=O)N2CCN(CC(=O)Nc3ccc(C)cc3)CC2)cc1 | inactive: 1.48% |
